{"source": "PubChem BioAssay AID1259308 (NCATS, 2017)", "purpose": "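Genes whose loss raises luciferase production in HEK293 cells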 (primary screen)", "system": "human HEK293 embryonic kidney cells stably expressing firefly luciferase (HEK-CMV-Luc2-Hygro)", "knock-down reagent": "single siRNA against human genes, 0.8 pmol siRNA per well", "duration": "72 h", "read-out": "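Reporter luminescence and viable-cell signal on separate replicate plates, given as percent of non-targeting control and median/MAD z-scores, plus per-cell luciferase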", "reading the numbers": "total luciferase, z-score: higher = more reporter protein produced", "rule for the call": "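Active when the median/MAD z-score for overall luciferase is greater than 3; a gene was taken forward for validation with new siRNAs if at least two of its three siRNAs passed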", "meaning of the calls": "active = raised luciferase; inactive = no rise", "note": "Shown is an unselected part of about 59,000 deposited reagents. About 1,510 of them (2.6%) were called active. 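Calls use total luciferase alone and ignore viability, so some active siRNAs may act by altering cell number.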 Unmarked entries are inactive. The numbers tell different reagents against one gene apart. Not all columns of the deposit are shown. Reagent sequences are not shown."}
{"target": "CARTPT", "reagent": 1, "total luciferase, z-score": 0.85}
{"target": "CARTPT", "reagent": 2, "total luciferase, z-score": -0.501}
{"target": "CARTPT", "reagent": 3, "total luciferase, z-score": -1.01}
{"target": "AGPAT4", "reagent": 1, "total luciferase, z-score": 0.934}
{"target": "AGPAT4", "reagent": 2, "total luciferase, z-score": -1.37}
{"target": "AGPAT4", "reagent": 3, "total luciferase, z-score": 0.817}
{"target": "PBX1", "reagent": 1, "total luciferase, z-score": -0.31}
{"target": "PBX1", "reagent": 2, "total luciferase, z-score": -1.61}
{"target": "PBX1", "reagent": 3, "total luciferase, z-score": -0.817}
{"target": "ANKRD50", "reagent": 1, "total luciferase, z-score": -0.0867}
{"target": "ANKRD50", "reagent": 2, "total luciferase, z-score": -1.91}
{"target": "ANKRD50", "reagent": 3, "total luciferase, z-score": 1.13}
{"target": "VMA12", "reagent": 1, "total luciferase, z-score": -0.236}
{"target": "VMA12", "reagent": 2, "total luciferase, z-score": 0.113}
{"target": "VMA12", "reagent": 3, "total luciferase, z-score": -0.232}
{"target": "OR8D2", "reagent": 1, "total luciferase, z-score": 0.815}
{"target": "OR8D2", "reagent": 2, "total luciferase, z-score": -0.432}
{"target": "OR8D2", "reagent": 3, "total luciferase, z-score": -1.45}
{"target": "SERPINB1", "reagent": 1, "total luciferase, z-score": 0.406}
{"target": "SERPINB1", "reagent": 2, "total luciferase, z-score": -0.108}
{"target": "SERPINB1", "reagent": 3, "total luciferase, z-score": 0.519}

A portion taken from the entries so far, as a working copy:
{"target": "CARTPT", "reagent": 3, "total luciferase, z-score": -1.01}
{"target": "AGPAT4", "reagent": 1, "total luciferase, z-score": 0.934}
{"target": "AGPAT4", "reagent": 2, "total luciferase, z-score": -1.37}
